Experimental data published in publication doi:10.1101/707661.

By UniProt entry, the sequences of proteins in these tests, tags left out. Where a name states a change or a piece, a line headed by the entry shows the natural chain unless it says otherwise.
UniProt P28074: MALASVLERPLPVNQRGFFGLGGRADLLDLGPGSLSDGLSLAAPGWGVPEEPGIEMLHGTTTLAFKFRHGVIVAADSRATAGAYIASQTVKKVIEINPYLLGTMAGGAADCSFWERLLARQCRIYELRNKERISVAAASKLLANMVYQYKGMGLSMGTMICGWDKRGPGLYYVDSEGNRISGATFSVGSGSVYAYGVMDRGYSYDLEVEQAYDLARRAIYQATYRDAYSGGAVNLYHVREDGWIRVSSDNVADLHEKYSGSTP
UniProt P11387: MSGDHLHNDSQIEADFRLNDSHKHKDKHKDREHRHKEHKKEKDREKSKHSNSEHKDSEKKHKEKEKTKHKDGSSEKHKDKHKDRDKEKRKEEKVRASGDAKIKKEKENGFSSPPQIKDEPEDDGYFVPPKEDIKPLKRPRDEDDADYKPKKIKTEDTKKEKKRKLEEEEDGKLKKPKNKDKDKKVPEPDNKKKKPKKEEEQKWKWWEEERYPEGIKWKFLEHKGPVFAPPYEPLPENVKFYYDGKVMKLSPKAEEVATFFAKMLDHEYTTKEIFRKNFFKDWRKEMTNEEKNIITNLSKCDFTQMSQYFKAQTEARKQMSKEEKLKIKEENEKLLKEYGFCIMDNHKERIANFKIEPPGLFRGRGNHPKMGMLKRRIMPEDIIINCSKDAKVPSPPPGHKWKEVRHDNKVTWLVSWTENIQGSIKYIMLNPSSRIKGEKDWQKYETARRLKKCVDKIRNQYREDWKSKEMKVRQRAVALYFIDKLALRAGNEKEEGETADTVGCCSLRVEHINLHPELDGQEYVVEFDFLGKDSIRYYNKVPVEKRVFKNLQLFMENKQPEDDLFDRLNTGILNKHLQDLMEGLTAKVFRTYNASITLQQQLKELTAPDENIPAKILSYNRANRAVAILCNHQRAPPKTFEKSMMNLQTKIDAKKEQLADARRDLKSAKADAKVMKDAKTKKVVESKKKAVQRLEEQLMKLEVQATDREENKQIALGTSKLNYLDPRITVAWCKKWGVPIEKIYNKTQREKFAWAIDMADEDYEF
UniProt Q02880: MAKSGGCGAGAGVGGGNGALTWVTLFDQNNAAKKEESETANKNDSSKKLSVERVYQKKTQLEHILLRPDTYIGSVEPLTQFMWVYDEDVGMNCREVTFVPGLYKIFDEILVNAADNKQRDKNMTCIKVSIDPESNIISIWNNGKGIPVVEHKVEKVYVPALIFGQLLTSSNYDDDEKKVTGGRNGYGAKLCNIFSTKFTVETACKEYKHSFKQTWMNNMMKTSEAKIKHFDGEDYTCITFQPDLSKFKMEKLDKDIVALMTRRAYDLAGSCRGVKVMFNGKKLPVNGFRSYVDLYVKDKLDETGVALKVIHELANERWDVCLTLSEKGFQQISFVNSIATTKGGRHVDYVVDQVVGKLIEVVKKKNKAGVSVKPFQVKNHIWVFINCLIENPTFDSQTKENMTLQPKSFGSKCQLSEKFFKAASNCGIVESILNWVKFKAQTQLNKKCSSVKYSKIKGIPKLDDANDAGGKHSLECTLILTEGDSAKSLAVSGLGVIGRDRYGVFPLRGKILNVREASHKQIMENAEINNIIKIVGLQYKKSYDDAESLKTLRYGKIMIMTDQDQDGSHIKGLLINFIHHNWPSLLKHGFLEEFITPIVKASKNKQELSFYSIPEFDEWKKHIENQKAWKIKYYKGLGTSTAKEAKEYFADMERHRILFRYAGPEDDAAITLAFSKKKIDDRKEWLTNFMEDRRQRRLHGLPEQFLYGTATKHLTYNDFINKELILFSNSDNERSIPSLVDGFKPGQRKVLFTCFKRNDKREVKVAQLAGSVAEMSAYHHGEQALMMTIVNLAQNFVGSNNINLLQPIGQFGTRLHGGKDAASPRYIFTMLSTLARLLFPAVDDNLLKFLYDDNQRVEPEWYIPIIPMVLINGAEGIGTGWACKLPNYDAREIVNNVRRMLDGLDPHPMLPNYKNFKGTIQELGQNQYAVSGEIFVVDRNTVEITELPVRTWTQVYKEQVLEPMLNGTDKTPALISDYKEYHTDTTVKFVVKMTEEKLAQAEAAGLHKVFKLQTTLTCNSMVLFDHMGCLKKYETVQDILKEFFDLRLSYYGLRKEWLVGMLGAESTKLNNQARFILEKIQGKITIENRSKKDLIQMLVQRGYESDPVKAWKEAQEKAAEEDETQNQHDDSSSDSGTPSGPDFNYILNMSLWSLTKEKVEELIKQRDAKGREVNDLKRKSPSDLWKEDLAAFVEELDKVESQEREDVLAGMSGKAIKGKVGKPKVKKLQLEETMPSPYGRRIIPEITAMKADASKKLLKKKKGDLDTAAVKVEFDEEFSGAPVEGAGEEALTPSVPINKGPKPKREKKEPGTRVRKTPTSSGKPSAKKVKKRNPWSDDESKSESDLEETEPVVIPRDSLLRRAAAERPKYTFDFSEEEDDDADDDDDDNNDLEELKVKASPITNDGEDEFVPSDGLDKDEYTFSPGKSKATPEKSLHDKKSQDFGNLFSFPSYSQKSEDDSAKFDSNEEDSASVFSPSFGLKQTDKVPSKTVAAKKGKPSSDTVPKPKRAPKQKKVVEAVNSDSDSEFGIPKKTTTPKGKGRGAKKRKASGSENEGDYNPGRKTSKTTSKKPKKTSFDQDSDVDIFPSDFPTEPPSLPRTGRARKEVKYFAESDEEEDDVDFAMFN

Biological target: PSMB5-FLAG (UniProt P28074)
Assay: co-IP

With TOP1 (from UniProt P11387 1-765) the binding was “binds”.

With TOP2β (from UniProt Q02880 1-1626) the binding was “binds”.

These are yes or no findings as the source states them, for the method shown. Binding seen in cells or lysates may run through a third protein. Binding calls can cover weak binding; strength is not graded here.
